The assay has as its target endophilin A1 (mouse (endogenous in hippocampal neurons)) (UniProt Q62420). Put plainly: co-IP; anti-endophilin antibody on Dynabeads; lysates of Itsn1 KO mouse hippocampal cultures infected with rescue lentivirus (DIV 7, lysed DIV 14); lysis buffer 20 mM HEPES pH 7.4, 50 mM KCl, 2 mM MgCl2, 1% Triton X-100; blot with anti-Itsn1 and anti-endophilin 1.

The chains behind the UniProt entries cited, without tags or fusion partners.
UniProt Q62420: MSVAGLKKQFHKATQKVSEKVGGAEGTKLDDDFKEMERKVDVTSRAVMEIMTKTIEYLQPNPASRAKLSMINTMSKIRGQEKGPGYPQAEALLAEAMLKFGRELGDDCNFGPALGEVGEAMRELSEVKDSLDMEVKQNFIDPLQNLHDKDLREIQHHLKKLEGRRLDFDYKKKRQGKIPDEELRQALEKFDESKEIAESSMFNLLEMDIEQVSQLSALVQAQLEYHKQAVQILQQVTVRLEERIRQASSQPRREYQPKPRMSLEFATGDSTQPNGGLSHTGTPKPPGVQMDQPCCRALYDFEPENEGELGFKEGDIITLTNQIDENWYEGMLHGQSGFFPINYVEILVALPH
UniProt Q15811: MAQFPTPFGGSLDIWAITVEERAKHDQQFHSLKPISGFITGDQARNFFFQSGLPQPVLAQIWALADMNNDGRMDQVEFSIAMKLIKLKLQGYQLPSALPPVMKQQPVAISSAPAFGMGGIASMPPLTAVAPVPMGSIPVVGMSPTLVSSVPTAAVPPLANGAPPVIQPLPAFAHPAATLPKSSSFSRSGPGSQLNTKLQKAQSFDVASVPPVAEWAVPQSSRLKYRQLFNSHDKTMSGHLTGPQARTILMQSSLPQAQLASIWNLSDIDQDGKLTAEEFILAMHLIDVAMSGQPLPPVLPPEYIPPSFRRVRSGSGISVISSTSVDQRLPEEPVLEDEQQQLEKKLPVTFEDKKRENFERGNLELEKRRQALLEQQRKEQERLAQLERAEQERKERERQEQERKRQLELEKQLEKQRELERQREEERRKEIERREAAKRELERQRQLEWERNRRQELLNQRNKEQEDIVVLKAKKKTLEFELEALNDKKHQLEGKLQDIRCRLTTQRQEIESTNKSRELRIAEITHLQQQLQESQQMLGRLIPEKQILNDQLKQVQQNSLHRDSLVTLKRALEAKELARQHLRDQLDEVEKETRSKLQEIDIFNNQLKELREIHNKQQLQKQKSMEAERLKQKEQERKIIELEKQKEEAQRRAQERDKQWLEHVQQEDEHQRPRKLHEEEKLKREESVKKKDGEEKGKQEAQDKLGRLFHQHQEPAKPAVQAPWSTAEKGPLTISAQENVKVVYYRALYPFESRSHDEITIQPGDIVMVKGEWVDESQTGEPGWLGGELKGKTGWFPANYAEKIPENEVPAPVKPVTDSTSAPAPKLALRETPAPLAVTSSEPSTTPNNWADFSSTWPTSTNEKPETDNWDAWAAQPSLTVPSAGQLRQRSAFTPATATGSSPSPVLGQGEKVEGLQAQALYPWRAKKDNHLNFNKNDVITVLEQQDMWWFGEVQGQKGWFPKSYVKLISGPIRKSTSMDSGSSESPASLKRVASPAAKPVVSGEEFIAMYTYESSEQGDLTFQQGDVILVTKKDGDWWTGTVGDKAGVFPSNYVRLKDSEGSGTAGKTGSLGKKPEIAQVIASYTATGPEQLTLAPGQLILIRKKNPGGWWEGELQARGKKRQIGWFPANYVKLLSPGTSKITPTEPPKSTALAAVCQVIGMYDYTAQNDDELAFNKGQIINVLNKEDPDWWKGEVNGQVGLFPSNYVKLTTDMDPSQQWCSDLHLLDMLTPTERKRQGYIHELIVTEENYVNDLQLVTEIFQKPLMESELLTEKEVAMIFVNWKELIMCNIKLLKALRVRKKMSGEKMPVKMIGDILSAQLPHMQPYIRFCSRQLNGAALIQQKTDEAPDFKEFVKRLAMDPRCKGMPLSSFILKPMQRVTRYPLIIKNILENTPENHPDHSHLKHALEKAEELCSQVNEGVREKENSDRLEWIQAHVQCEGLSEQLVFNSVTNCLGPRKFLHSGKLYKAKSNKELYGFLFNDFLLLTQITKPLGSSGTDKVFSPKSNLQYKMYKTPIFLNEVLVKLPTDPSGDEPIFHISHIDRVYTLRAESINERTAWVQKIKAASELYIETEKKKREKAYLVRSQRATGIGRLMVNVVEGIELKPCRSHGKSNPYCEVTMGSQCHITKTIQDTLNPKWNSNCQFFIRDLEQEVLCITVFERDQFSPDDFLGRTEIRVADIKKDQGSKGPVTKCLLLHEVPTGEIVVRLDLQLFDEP

The values below come from publication PMC12321584.

These are yes or no findings as the source states them, for the method shown. In cells and extracts the contact can be indirect. Some results given as binding are weak or reduced against the parent protein; the word gives no strength.

As for “intersectin-1, full-length rescue construct ITSN1 WT (from UniProt Q15811 1-1721)”, the binding entry was “binds”.
